Test results published in US20220315634A1, “TGF-BETA VACCINE” (IO BIOTECH APS, priority 2019, published 2022).
At least one peptide structure holds a part that was inferred or is arguable (an end, a ring closure or a residue). No end group written: not given here.

System: CD4+ and CD8+ T cells
Assay: Intracellular cytokine staining (ICS) / FACS of peptide-stimulated T cells
Format: cell-based
Settings: healthy donor BC-M-41, PBMCs stimulated 13 days prior to ICS
Protocol: Intracellular staining of cell cultures was performed after PBMCs were stimulated with TGFβ-derived peptides (or incubated with no peptide as a control) for 5 hours in the presence of BD GolgiPlug™ (added after the first hour of peptide stimulation). CD107a-PE (cat. 555801, BD Biosciences) antibody is added in the beginning of the incubation. Stimulated cells were stained with fluorescently labelled antibodies for surface markers (CD3, CD4, CD8) and thereafter permeabilised by using a mixture of Fixation/Permeabilization concentrate and diluent (eBioscience, cat. 00-5123-43 and 00-5223-56), according to manufacturer's instructions. Permeabilised cells were then stained with fluorochrome-labelled antibodies for IFNγ and TNFα. Flow cytometry analysis was performed on a FACSCanto™ II (BD Biosciences). […] Donor PBMCs were analyzed for HLA-A2 by staining with anti-HLA-A2-FITC (BD Biosciences, San Jose, CA, USA) with an appropriate isotype control. […]
Intracellular Cytokine Staining (ICS) analysis was carried to further characterise the functionality of T cells responding to TGFb1 epitopes. […] The expression of cytokine expression (IFNγ and TNFα) as well as marker for cytotoxicity (CD107a) were quantified. […]

Sequence: LLLPLLWLLVLTPGRPAAGL [TGFb-02]
- reactivity of CD3+ CD4+ T cell fraction (secretion of TNFα alone or with IFNγ): reactive
- reactivity of CD3+ CD8+ T cell fraction: not CD3^+ CD8^+ T cell fraction
